Laboratory results as given in US20200123208A1, “PEPTIDES AND NEMATICIDAL COMPOSITIONS” (priority 2017, published 2020).
Some results were stated once for a whole list of compounds, not compound by compound.

System: Meloidogyne incognita J2s
Test: B. subtilis and C. reinhardtii plant protection assay, M. incognita
Type: in vivo
Details: nine independent C. reinhardtii transformants secreting the uNLP
Method: Tomato seeds were sterilised with 2.5% NaOCl for 15 minutes, washed 5 times in ddH2O and germinated on 0.5% Murashige and Skoog plates at 23° C. […] Invasion assays were performed by mixing 500 pre-treated M. incognita or G. pallida J2s with agar slurry and a single tomato seedling (2 days post germination) in a 6 well plate. Assays were left at 23° C. for 24 hours in the case of M. incognita and at 18° C. for 24 hours in the case of G. pallida under a 16 hour light and 8 hour darkness cycle. Seedlings were stained using acid fuschin [69] and the number of nematodes within the roots counted.
B. subtilis were grown overnight in LB media containing ampicillin (100 μg/ml) at 37° C. with shaking, and harvested in the log phase of growth determined by measuring OD600nm. Five ml of culture at 0.5 OD was spun down and the pellet mixed with 3 ml of agar slurry and 500 J2s from either G. pallida or M. incognita. C. reinhardtii clones were grown at 23° C. with shaking, cultures in the log phase were measured at OD750 and 5 ml of culture at 0.5 OD was pelleted by centrifugation. C. reinhardtii pellets were mixed with 3 ml of agar slurry and 500 J2s from either G. pallida or M. incognita. Plant invasion assays were performed as described above. […]

Sequence	protection of tomato plants against M. incognita J2 infection
SFDSFTGPGFTGLD [Mi-NLP-15b]	up to 90%
GGGRYFIRPFADQ [Mi-NLP-9f, predicted unamidated NLP of Meloidogyne incognita]	up to 90%
